Experiment [1] addresses T1, glypican-1, endogenous in WT/PyMT mouse mammary tumours (mouse (endogenous in MMTV-PyMT tumours)) (UniProt Q9QZF2).
T1 sequence: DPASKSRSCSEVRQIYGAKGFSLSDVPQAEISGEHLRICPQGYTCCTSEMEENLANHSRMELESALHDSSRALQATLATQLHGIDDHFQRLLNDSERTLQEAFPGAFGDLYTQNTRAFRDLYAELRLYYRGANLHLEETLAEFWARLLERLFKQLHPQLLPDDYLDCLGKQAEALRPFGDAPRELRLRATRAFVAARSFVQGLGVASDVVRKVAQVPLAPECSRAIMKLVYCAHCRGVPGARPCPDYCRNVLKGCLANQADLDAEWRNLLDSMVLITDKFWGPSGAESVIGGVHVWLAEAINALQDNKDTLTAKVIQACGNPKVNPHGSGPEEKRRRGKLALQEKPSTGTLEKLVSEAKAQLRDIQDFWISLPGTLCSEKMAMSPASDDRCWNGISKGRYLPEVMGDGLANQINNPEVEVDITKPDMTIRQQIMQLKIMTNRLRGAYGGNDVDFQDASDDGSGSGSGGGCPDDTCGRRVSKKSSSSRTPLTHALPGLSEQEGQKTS
The experiment in a line: co-IP; immunoprecipitation of endogenous proteins from WT/PyMT (and KO/PyMT) tumour extracts in RIPA buffer, 0.3 mg protein per ml, 900 μl; protein G or A agarose, overnight 4 °C; immunoblot. On the technique in general: In western blotting, separated proteins are transferred to a membrane and probed.

Protein sequences, listed by entry. Tags and fused reporters are not part of them. Lines headed by an entry give the natural chain unless they say otherwise; changes in a name come on top.
UniProt Q61245: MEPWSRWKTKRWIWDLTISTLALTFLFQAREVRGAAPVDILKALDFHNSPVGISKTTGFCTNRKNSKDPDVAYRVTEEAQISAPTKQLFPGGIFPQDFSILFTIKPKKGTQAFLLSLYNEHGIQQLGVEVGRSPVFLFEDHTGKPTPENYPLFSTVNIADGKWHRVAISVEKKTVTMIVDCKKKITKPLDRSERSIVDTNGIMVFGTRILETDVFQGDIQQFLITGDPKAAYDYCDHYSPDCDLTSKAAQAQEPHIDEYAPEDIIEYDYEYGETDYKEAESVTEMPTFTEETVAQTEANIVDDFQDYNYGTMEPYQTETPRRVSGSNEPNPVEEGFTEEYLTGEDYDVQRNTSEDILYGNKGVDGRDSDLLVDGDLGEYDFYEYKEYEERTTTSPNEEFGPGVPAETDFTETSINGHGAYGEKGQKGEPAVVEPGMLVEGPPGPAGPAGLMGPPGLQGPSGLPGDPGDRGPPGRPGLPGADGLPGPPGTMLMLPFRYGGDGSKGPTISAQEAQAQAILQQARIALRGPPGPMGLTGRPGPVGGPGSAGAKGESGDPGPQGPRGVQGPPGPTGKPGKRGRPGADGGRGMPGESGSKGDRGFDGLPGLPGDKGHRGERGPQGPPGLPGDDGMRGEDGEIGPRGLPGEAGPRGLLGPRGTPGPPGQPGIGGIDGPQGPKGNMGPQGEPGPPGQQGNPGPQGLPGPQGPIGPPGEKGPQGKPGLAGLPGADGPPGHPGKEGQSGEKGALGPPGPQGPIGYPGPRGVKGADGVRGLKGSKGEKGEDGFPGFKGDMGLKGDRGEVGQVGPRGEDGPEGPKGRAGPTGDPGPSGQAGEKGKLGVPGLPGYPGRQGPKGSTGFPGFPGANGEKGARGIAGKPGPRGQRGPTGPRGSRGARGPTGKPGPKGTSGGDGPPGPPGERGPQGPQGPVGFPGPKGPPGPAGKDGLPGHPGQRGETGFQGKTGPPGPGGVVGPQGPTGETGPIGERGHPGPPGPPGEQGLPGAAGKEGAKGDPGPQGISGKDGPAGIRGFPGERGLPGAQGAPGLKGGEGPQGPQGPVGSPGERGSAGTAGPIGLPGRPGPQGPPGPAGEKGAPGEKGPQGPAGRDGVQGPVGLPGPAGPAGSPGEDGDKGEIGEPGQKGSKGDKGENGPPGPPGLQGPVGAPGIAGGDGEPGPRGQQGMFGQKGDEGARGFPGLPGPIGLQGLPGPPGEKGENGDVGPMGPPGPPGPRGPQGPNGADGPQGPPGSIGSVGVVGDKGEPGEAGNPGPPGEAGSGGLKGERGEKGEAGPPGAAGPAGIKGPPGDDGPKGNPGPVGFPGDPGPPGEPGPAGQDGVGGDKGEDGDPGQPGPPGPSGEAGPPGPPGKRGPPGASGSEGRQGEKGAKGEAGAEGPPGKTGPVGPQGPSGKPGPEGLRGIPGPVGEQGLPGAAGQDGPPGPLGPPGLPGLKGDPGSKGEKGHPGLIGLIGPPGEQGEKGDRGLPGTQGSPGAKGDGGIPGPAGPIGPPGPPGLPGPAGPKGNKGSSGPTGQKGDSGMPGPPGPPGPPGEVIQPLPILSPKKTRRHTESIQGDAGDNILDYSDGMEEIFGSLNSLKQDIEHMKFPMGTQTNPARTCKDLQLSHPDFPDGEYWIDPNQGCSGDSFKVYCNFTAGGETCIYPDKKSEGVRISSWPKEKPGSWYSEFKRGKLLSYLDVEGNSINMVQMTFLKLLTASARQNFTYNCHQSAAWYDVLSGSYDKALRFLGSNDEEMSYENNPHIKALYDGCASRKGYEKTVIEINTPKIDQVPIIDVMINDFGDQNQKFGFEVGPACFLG

The target in experiment [2] is α3(V) collagen chain, endogenous in WT/PyMT mouse mammary tumours (mouse (endogenous in MMTV-PyMT tumours)). Described as above.

Results are given in words; binding and its absence hold for the method and conditions named. Binding seen in cells or lysates may run through a third protein. Binding can be weak; no strength is given.

As for “α3(V) collagen chain, endogenous in WT/PyMT mouse mammary tumours”, in experiment [1], the binding entry is on record as “binds”.
With “α1(XI) collagen chain, endogenous in WT/PyMT mouse mammary tumours (from UniProt Q61245)”, the binding entry in experiment [1] is reported as “no binding”.

B1: glypican-1, endogenous in WT/PyMT mouse mammary tumours (protein, UniProt Q9QZF2 24-529)
chain: T1 sequence
On to B1, for which the binding result in experiment [2] is listed as “binds”.

For the origin of these results see paper PMC5253704.
